The source of these data is publication PMC7062782, “A progesterone biosensor derived from microbial screening” (Nature Communications, 2020).

For some of these results: A negative result means that nothing was seen under these conditions. For some of these results: At least one verdict rests on a figure or table, not on a statement of the authors. For some of these results: Protein sequences can lack the tags named with them. For some of these results: Weaker means in comparison with the reference protein, sequence or condition of that experiment. Construct, isoform or probe ends are uncertain for at least one entry. For some of these results: The direction of at least one scale is not stated here.

Data set [1] concerns the target T1, SRTF1 (Pimelobacter simplex ATCC 6946) (UniProt A0A0A1DUF2).
T1 sequence (looked up, limits assumed): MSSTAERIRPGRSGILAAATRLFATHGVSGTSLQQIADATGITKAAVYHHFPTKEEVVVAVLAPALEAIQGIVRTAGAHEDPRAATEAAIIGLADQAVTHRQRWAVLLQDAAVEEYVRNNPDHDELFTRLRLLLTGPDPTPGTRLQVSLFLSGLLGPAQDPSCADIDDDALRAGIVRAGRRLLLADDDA
The experiment in a line: BLI. The settings on record: BLI: 28 mM Tris-HCl pH 8.0, 4.25% glycerol, 25 mM NaCl, 1.67 mg/mL BSA, 30 C, recombinant protein, protein details: C-terminal 6xHis, label: 5' biotin on strand 1.

Data set [2] deals with T1, SRTF1 (Pimelobacter simplex ATCC 6946). In words: QD-FRET. The settings on record: QD-FRET: 1x HEPES with binding buffer (5x: 25 mM MgCl2, 25% glycerol, 250 mg/L salmon sperm DNA, 0.1 M Tris-HCl), RT, recombinant protein, protein details: C-terminal 6xHis, label: 5' and 3' Cy5 on strand 1; for IC50: progesterone titration releasing DNA (IC50 is of progesterone).
Data set [3] concerns SRTF1_MUT1 (Pimelobacter simplex ATCC 6946). The experiment in a line: QD-FRET. The settings on record: sensor 3 with progesterone titration (IC50 in Supplementary Table 5, value not in material); QD-FRET: 1x HEPES with binding buffer (5x: 25 mM MgCl2, 25% glycerol, 250 mg/L salmon sperm DNA, 0.1 M Tris-HCl), RT; recombinant protein; label: 5' and 3' Cy5 on strand 1.

Take “AAATTGTCCCGGGCCTTTCTCCGCGAACTAGCCGTTCGGCTAGTTTACTC (double strand) [BLI-SRTF1o]”: the binding signal (% dissociated at 30 s) in data set [1] (5 uM progesterone) came to 81. Broadly, the IC50 is the midpoint of a concentration-inhibition curve. For “GCCTAACTAGCCGTTCTGTTAGTTATTC (double strand) [DNA2-Cy5]”, the IC50 amounted to 133 nM in data set [2] (sensor 2, QD/TF/DNA 1/4/18) and 57 nM in data set [2] (sensor 3, QD/TF/DNA 1/1/18). The binding result in data set [3] is on record as “binds”. For “AAATTGTCCCGGGCCTTTCTCCGCGAACTAGCCGTTCTGTTAGTTTACTC (double strand) [BLI-SRTF1o-13,15-T,T]”, the binding result in data set [1] (no steroid, Kd in Supplementary Table 2 (value not in material)) is “binds more weakly”. Consider “GCCTAACTAGCCGTTCGGCTAGTTATTC (double strand) [DNA1-Cy5]”, for which the IC50 in data set [2] (sensor 1, QD/TF/DNA 1/4/18) amounted to 738 nM. As for “TGTGCGTGTCCCTCGCTCGGTTTCACGA (double strand) [Scbd-Cy5]”, the binding result in data set [2] (no response to progesterone titration) was “no binding”.
